# About 6,100 (1.1%) of roughly 580,000 compounds were called active. This list was built around the results that the source calls inconclusive (neither active nor inactive); the mix of calls is not that of the screen. Calls come from the whole dose curve; as a rule, active = well fitted inhibition curve with a large enough effect; inconclusive = small, poorly fitted or top-dose-only effect, or another doubt; inactive = no such curve, though single readings can be large or run the other way. Potencies of inconclusive entries are doubtful fits and often do not repeat.
# Chains of the proteins cited; added tags and fusions are not shown.
# UniProt P18054, whole entry, looked up: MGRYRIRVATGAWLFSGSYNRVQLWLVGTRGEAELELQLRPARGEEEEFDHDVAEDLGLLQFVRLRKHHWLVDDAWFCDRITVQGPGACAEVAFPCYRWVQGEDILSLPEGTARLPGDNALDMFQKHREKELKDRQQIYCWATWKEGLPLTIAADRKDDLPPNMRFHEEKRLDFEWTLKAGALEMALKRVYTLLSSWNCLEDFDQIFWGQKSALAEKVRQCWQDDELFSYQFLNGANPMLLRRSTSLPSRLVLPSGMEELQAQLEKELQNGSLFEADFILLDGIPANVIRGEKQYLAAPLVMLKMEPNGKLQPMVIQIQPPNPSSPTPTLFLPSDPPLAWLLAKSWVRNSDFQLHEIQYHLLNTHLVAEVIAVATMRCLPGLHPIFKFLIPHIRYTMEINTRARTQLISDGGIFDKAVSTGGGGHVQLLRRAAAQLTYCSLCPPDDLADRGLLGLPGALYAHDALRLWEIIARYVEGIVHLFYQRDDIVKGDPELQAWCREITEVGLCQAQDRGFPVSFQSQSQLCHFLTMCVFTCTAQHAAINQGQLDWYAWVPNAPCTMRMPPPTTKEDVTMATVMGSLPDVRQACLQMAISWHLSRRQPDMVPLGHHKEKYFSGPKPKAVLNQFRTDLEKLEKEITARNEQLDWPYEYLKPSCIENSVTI
# Target: Polyunsaturated fatty acid lipoxygenase ALOX12 (Homo sapiens) (UniProt P18054)
# Experiment: Primary qHTS assay for inhibitors of human arachidonate 12S-lipoxygenase (ALOX12): Round 2
# Details: purified 12hLO, xylenol orange hydroperoxide absorbance; series mostly up to 108 µM
# Procedure, shortened: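 Purified human 12hLO (150 nM final) in 25 mM Hepes, 0.01% Triton X-100, pH 7.0 was preincubated 15 min at room temperature with compound. Then 40 uM arachidonic acid was added, 30 min. Hydroperoxide was read by Fe-XO absorbance ratio 573/405 nm.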
# Potency is the fitted concentration of half-maximal effect.
row,Structure (SMILES),Potency
1,COc1ccc(-c2onc(C)c2C)cc1S(=O)(=O)NCCc1ccccc1,"inconclusive: 112 µM [inhibitor, partial curve, poor fit]"
2,C#CCN(CC=C)C(=O)c1ccc(OC2CCN(S(=O)(=O)N(C)C)CC2)cc1,inactive
3,Oc1c(C(c2ccccc2)N2CCCC2)sc2nc(-c3ccco3)nn12 (centres undefined),"inconclusive: 63.1 µM [inhibitor, partial curve, poor fit]"
4,O=[N+]([O-])c1ccccc1C=NNc1ccccc1,active: 20 µM
5,O=C(Oc1ccccc1)N1CCC[C@@]2(CCN(c3ccccc3)C2)C1,"inconclusive: 25.1 µM [inhibitor, single point]"
6,COc1ccc(Cl)cc1C(=O)NC1CCN(c2cc(-c3cccs3)[nH]n2)C1 (centres undefined),inactive
7,Cc1c(C(=O)Nc2cccc(S(=O)(=O)N3CCOCC3)c2)oc2ccc(Br)cc12,"inconclusive: 39.8 µM [inhibitor, partial curve, poor fit]"
8,COCCCNC(=O)c1ccc2c(c1)OCO2,"inconclusive: 0.631 µM [inhibitor, single point]"
9,CCOC(=O)c1c(C)[nH]c(CCC(=O)NCc2cc(OC)c(OC)c(OC)c2)c1C,"inconclusive: 31.6 µM [inhibitor, single point]"
10,C=CCOc1ccccc1CNCCCN1CCOCC1,"inconclusive: 0.562 µM [inhibitor, full curve, poor fit]"
11,COC(=O)[C@@H]1Cc2ncn(Cc3ccc(Cl)cc3)c2CN1C(=O)c1cccs1,inactive
12,Cc1cc2oc(=O)c(CC(=O)O)c(C)c2c2occ(-c3ccccc3)c12,inactive
13,C/C(=N\NC(=S)NCc1ccccc1)c1ccc2ccccc2c1OC(F)F,"inconclusive: 31.6 µM [inhibitor, partial curve, poor fit]"
14,Cn1c(NC(=O)c2ccco2)c(-c2ccccc2)c(=O)c2ccccc21,"inconclusive: 100 µM [inhibitor, single point]"
15,CCN(CC)C(=S)NC(=O)C12CC3CC(CC(C3)C1)C2,inactive
16,Cc1ccccc1-c1noc(CCC(=O)NCC2CCCO2)n1 (centres undefined),"inconclusive: 56.2 µM [inhibitor, partial curve, poor fit]"
17,Oc1ccc(Br)cc1-c1ccn[nH]1,"inconclusive: 100 µM [inhibitor, partial curve, poor fit]"
18,Cc1ccc(N(C(=O)Cc2cccs2)C(C(=O)NCC2CCCO2)c2ccncc2)cc1 (centres undefined),"inconclusive: 50.1 µM [inhibitor, partial curve, poor fit]"
19,COC(=O)[C@@]1(C)[C@H]2C(=O)N(C)C(=O)[C@H]2[C@H]2CN=C(SCc3ccccc3)N21,inactive

# From compound 12 to 13, copied from above:
row,Structure (SMILES),Potency
12,Cc1cc2oc(=O)c(CC(=O)O)c(C)c2c2occ(-c3ccccc3)c12,inactive
13,C/C(=N\NC(=S)NCc1ccccc1)c1ccc2ccccc2c1OC(F)F,"inconclusive: 31.6 µM [inhibitor, partial curve, poor fit]"
